Reference: PMC6168688

Tests used:
[1] = biological target: T1, OBE1, bait of the yeast two-hybrid screen and matrix with MOM1 (A. thaliana) (UniProt Q9S736); assay: two-hybrid; interaction matrix on SD-AHTL selective media (10-3 dilution), confirmation of the OBE1 screen
T1 sequence: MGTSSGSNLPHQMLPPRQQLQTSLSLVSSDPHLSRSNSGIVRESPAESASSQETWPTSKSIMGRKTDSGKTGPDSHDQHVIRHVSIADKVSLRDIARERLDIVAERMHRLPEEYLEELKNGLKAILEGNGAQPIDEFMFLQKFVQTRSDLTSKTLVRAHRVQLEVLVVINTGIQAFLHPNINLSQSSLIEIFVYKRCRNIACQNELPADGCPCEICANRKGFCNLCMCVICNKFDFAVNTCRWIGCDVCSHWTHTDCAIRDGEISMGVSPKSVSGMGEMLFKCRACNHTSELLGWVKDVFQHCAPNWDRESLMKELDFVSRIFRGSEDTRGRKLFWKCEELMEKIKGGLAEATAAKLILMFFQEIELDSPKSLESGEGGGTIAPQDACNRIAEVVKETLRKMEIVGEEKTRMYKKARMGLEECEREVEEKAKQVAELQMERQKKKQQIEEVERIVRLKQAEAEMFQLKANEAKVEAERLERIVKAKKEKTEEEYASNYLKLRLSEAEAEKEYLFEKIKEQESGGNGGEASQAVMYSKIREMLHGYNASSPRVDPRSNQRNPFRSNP

[2] = biological target: T1, OBE1, bait of the yeast two-hybrid screen and matrix with MOM1 (A. thaliana); assay: two-hybrid; library screen using OBE1 as bait

In the case of “MOM1, cDNA isolated in the OBE1 yeast two-hybrid screen (A. thaliana)”, the binding [1] is reported as “binds” and the binding [2] is reported as “binds”.

These are yes or no findings as the source states them, for the method shown. Binding can be weak; no strength is given.
